Data on 117 substances can be found in the supplement of paper PMC5949888.

Most values lie at the floor of the assay. Slopes are relative: functional sequences can read slightly below zero. Some results are limits rather than exact numbers.

The data set has as its system Saccharomyces cerevisiae PS128 hsf1 delta, HSF1(1-493) fusion. Description: growth estimate (transactivation domain function in HSF1 fusion, heat-shock survival) (a.u. (slope of normalised read count over time)); higher = stronger growth at 37°C, i.e. more transactivation activity. The conditions noted are these: library: random library.
As for HARDGSFEYSSRRSVSLQTV, the growth estimate is -0.243. SRLLVPKSLLLRGCTEGCGS: the growth estimate was under -0.25.

Regarding NTLSIL, the growth estimate is under -0.25.

ISALNEPLKSV: the growth estimate was under -0.25. For AQTPGKCPKSRQRLLN, the growth estimate was under -0.25. The result for VTRISAQLREVSGRLERIGS reads under -0.25; that for SYSTSAYWVQKTQHGSSGVM, under -0.25; that for GGWTTELLYEVQRQGFGSGR, under -0.25. For the substance QDSQWC, the growth estimate was under -0.25. Consider EHNGRIRSPLEPFSK, for which the growth estimate was under -0.25. On to TYWASQGIAIFVARSTIYKA, for which the growth estimate is under -0.25. As for FCEA, the growth estimate is under -0.25.

Regarding IGRVPASASTAGF, the growth estimate is under -0.25. As for GWRGKSGFWCATRTL, the growth estimate was under -0.25. The result for YRVLHASFT reads under -0.25; that for TKPGYRWGSSGGREASSGHY, under -0.25; that for GRCR, under -0.25. With LWIRYPPLRVLMALTKIILV the figure was under -0.25. The result for GKG reads under -0.25. On to ILSGDNSAHLLAAFDYIRPG, for which the growth estimate is under -0.25. The result for NMDNWWDRSRWVFGAQVMLV reads under -0.25; that for VDSLGVAQKKFQANICDSLG, under -0.25; that for AFVNFSSSPRNRWTGRSTCS, under -0.25. As to QSAIGSRAPL, the growth estimate was under -0.25.

Consider VVIRMLLIQVMDRDSGERLA, for which the growth estimate was under -0.25. The result for VMC reads under -0.25; that for RILVP, under -0.25; that for PGR, under -0.25. VILIRMRGM: the growth estimate is under -0.25. The result for MGINKPVAVGLATQWARAGR reads under -0.25; that for TPGPVWGRPSLYSTKLGESM, under -0.25; that for NQATEFSRSERSLTLSEQFH, under -0.25. The result for TFHPLLGQSRDVTSNVMLAY reads under -0.25; that for VKDATVQILGIMQ, under -0.25; that for WQQLTD, under -0.25. With YGTG the figure was under -0.25. In the case of PFNFNRNDPLCDYSNRAVFG, the growth estimate was under -0.25. With ALLGQLWQAPGCFCLNLNTE the figure was under -0.25. In the case of DLTLALLS, the growth estimate is under -0.25. The result for WGQRERGLARAMVFLIQGLQ reads under -0.25; that for PIKKPHECYSQLHCHTGVVV, under -0.25; that for QVLR, under -0.25. The result for MLALTSGLRILTA reads under -0.25; that for AVAEWHLLRGTTFRTGVWPL, under -0.25. With VNDRRVAKRGVLGNAYQCHR the figure was under -0.25. As to SGHSFQ, the growth estimate was -0.228. QELTIRGC: the growth estimate is under -0.25. With VRRGSGLLC the figure was under -0.25; with ERDTVVCKRSDILDLTQVNC, under -0.25; with TAADIGRGKSGPGPALHPQL, under -0.25. With PQAF the figure was under -0.25. On to YRRVPAHNGAA, for which the growth estimate is under -0.25. AWSIYSGVRRHDASSPGSGD: the growth estimate is under -0.25. Consider ALFMEMS, for which the growth estimate was under -0.25.

LMDPHGLLSRD: the growth estimate was under -0.25. For GVLMINN, the growth estimate is under -0.25.

On to TYFSGVKVVSLGLLAAPWAT, for which the growth estimate is under -0.25. With GIGSRRGSPQPP the figure was under -0.25. Turning to EGGRVGRGGMATGRGP, the growth estimate is under -0.25. For RSPW, the growth estimate is under -0.25. Take TETRLGANLFG: the growth estimate was under -0.25. With MHVARALLLLEQEKGRSTLL the figure was under -0.25; with GGSRRHSYIFRYVRMRRKIV, under -0.25; with DSCRTSVPWPTNQWTVATLK, under -0.25. The result for MPTDITSRRIALSNEVAIPC reads under -0.25; that for TQAVRQVTLARLR, under -0.25; that for YVMTGSIVDKRSVSRDWANC, -0.25.

On to NKSNTFTMWSCPSCLN, for which the growth estimate was under -0.25. With CGSWPDTNCQYLTRRELCPS the figure was under -0.25; with APHDGGPRSNEQYLDLVALE, under -0.25. Regarding HTCL, the growth estimate is under -0.25. With RVCMLATRGTWWLCSQGQGT the figure was under -0.25; with QRVCVERRGVGTARGKG, under -0.25.

Take PITAIFRVACAKTA: the growth estimate is under -0.25. Regarding GEGRYFGNVGAHAQVGAIVL, the growth estimate is under -0.25. With CNYLL the figure was under -0.25. Turning to GQRGILDEGTAYEGAGE, the growth estimate is under -0.25. The result for IMGLAPRA reads under -0.25.

Consider ILCWGTVAIVQ, for which the growth estimate is under -0.25.

CQSALVRRQSRAMGYNIALP: the growth estimate was under -0.25. As for MNHSW, the growth estimate was under -0.25. With SHRVLSPVKAFSGGNSSHP, the growth estimate is under -0.25. With DLETIDGTDDAQAVPCLRWS the figure was under -0.25; with GCFLRPPGSFQELLLISVVI, under -0.25; with AEKALMGQVMSFTEDEAGPK, under -0.25. With LYPASRSSAEPGLYKTSLFM the figure was under -0.25; with VRWHL, -0.231.

On to ELMGGQGGGIDTCVLLLYIP, for which the growth estimate is under -0.25. With RKGDWAARNMPR the figure was -0.243. With IADPRFVFPGALDWVKRYRS, the growth estimate is under -0.25.

In the case of VALW, the growth estimate is under -0.25. With KRSGRG the figure was under -0.25. On to CRLFSACSTEVELYALAIR, for which the growth estimate was under -0.25. The result for RVSRFEEK reads under -0.25; that for EKPLTSRSRYHQRDSGQCDN, under -0.25. Consider MHKIA, for which the growth estimate is under -0.25. With VVPYL the figure was under -0.25; with RGQTNRPHDRNGSVPSAECS, under -0.25. As to ISSTW, the growth estimate was under -0.25.

Turning to RCVVILRGKAGPGGTRWSV, the growth estimate is under -0.25.

Consider TERRSDLCPRVTT, for which the growth estimate is under -0.25. With NWACPTSVLIQHRRINKSLS, the growth estimate was under -0.25. With PCGLGV the figure was under -0.25; with LISR, under -0.25; with HRTR, under -0.25. Consider TVASGNSVLRRGYTRSYL, for which the growth estimate was under -0.25. With GSSRWSKGRPPNHT the figure was under -0.25; with LGIKRVTFGVSSMRSVNHCS, under -0.25; with LYRNWGVKL, under -0.25. The result for VADLG reads under -0.25; that for ISCGGSAMRPAGWYVEDSGR, under -0.25. SLRYGGVHCIISGGQVPRIG: the growth estimate is under -0.25. As to AHRAKSVFL, the growth estimate is under -0.25. For RPPKHQEGVRQVLRFESRTR, the growth estimate is under -0.25. Consider APRGAGVRHQETGSPDMESS, for which the growth estimate is under -0.25.

Take SELCDGDDGGRPS: the growth estimate is under -0.25.

For the substance KSQNRRHDLM, the growth estimate was under -0.25.
